# According to patent US20220088024A1, “METHODS FOR TREATING CANCER USING TOZADENANT” (Biotie Therapies, Inc., priority 2018, published 2022):
# “And” between values parts separate entries of the source, which are not always exact repeats. Equal entries are not always repeated. The source gives many values for each of these; only a part stands here.
# Key:
# [1] = tested on: AT-3ova CD73+ tumour (mouse breast carcinoma cell line AT-3); experiment: Example 3: anti-tumor responses of SYN-115 QD or BID in the AT-3ova CD73+ tumour cell mouse model (tumor area); assay type: in vivo, C57/BL6 mice; set-up: key: tumor area, width × length in mm^2; conditions: Anti-PD-1 (200 ug)+SYN-115 (100 mg/kg) BID
# Procedure: The C57BL/6 mouse breast carcinoma cell line AT-3 was obtained from Dr. Trina Stewart (Griffith University, Nathan, QLD, Australia. Tumor cell lines were transduced to express chicken ovalbumin peptide and CD73 as previously described (1, 2, 3). Tumor cells are periodically verified to be Mycoplasma negative by the Victorian Infectious Diseases References Lab (Melbourne, VIC, Australia) by PCR analysis. Tumor cells were grown in DMEM supplemented with 10% FCS, GlutaMAX, and penicillin/streptomycin. 5×10^5 cells were resuspended in PBS and injected s.c. into C57/BL6 mice in a 100 μL volume. At day 14 tumors were measured and mice were randomized into distinct treatment groups to ensure that each group had tumors of similar size at the onset of treatment. Mice were treated i.p. at days 14, 18, 22, and 26 with either isotype control (2A3; 200 μg/mouse) or anti-PD-1 mAb (RMP1-14, 200 μg/mouse) and where indicated SYN-115 (Batch 71236AA002) at the indicated dose or vehicle control once or twice-daily via oral gavage on days 14 to 29. To calculate a dose of SYN-115 mouse weight was estimated to be 20 g per mouse. Therefore, 100 mg/kg=2 mg per mouse in […] which is equivalent to 10 mg/ml. To make up 40 mL, 400 milligrams of SYN-115 was weighed and added into a Falcon tube, then 1 mL of Tween 80 was added and mixed into a paste and then 39 mL of 1% Methyl Cellulose was added. The solution was vortexed and then left on a rotating mixer for at least 2 hours and maintained at 4° C. Tumor measurements were taken 2-3 times per week. Tumor sizes were determined by width * length and mice were culled when tumors reached the ethical limit of 150 mm^2.
# [2] = tested on: CT26 colon carcinoma tumor; experiment: Example 5: anti-tumor responses of SYN-115 in the CT26 tumor mouse model (tumor area, survival); assay type: in vivo, BALB/c mice
# Procedure: (§1) The BALB/c mouse colon carcinoma cell line CT26 was cultured in RPMI supplemented with 10% FCS, GlutaMAX, and penicillin/streptomycin. Tumor cells are periodically verified to be Mycoplasma negative by the Victorian Infectious Diseases References Lab (Melbourne, VIC, Australia) by PCR analysis. 1×10^5 cells were resuspended in PBS and injected s.c. into BALB/c mice in a 100 μL volume. At day 7 tumors were measured and mice were randomized into distinct treatment groups to ensure that each group had tumors of similar size at the onset of treatment. Mice were treated i.p. at days 7, 11 and 15, with either isotype control (2A3; 200 μg/mouse) or anti-PD-1 mAb (RMP1-14, 200 μg/mouse) and where indicated, SYN-115 (Batch 71236AA002) at the indicated dose or vehicle control once-daily via oral gavage on days 7 to 20. To calculate a dose of SYN-115 mouse weight was estimated to be 20 g per mouse. Therefore, 100 mg/kg=2 mg per mouse in 200 μL, which is equivalent to 10 mg/ml. To make up 40 mL, 400 milligrams of SYN-115 was weighed and added into a Falcon tube, then 1 mL of Tween 80 added and mixed into a paste and then 39 mL of 1% Methyl Cellulose was added. The solution was vortexed and then left on a rotating mixer for at least 2 hours and maintained at 4° C. Tumor measurements were taken 2-3 times per week. Tumor sizes were determined by width * length and mice were culled when tumors reached the ethical limit of 150 mm^2.
# [3] = tested on: CT26 colon carcinoma tumor; experiment: Example 7: SYN-115 dose range as single agent in the CT26 tumor mouse model (tumor area, survival); assay type: in vivo, BALB/c mice; set-up: key: tumor area in mm^2 (width × length)
# Procedure: as §1, with “treated” for “treated i.p. at days 7, 11 and 15,”, “with” for “with either isotype control (2A3; 200 μg/mouse) or anti-PD-1 mAb (RMP1-14, 200 μg/mouse) and where indicated,”, “71236AA006)” for “71236AA002)”, “80 was” for “80”
compound,measurement,setting,value
"COc1ccc(N2CCOCC2)c2sc(NC(=O)N3CCC(C)(O)CC3)nc12 [SYN-115, 4-hydroxy-4-methyl-piperidine-1-carboxylic acid (4-methoxy-7-morpholin-4-yl-benzothiazol-2-yl)-amide]",Raw Tumor Measurements,[1]; Day 3,21.15 and 23.32 and 19.32 and 20.28 and 26.8 and 23.03
same,Raw Tumor Measurements,[1]; Day 6,27.93 and 25.52 and 36.92 and 24.96 and 40.04 and 30.25
same,Raw Tumor Measurements,[1]; Day 9,32.33 and 36.72 and 38.4 and 35.88 and 43.46 and 41.04
same,Raw Tumor Measurements,[1]; Day 13,31.2 and 45.9 and 52.8 and 43.32 and 41.86 and 43.12
same,Raw Tumor Measurements,[1]; Day 15,39.76 and 43.52 and 52.14 and 41.76 and 50.88 and 63.36
same,Raw Tumor Measurements,[1]; Day 20,48 and 94.34 and 74 and 55.44 and 77.05 and 77.22
same,Raw Tumor Measurements,"[2]; 2A3 (200 μg/Mouse)+SYN-115 (30 mg/kg), Day 0",7.82 and 12.24 and 13.63 and 7.59 and 9.18
same,Raw Tumor Measurements,"[2]; 2A3 (200 μg/Mouse)+SYN-115 (100 mg/kg), Day 4",9.99 and 9.86 and 11.5 and 13.94 and 7.83 and 15.2 and 13.76
same,Raw Tumor Measurements,"[2]; 2A3 (200 μg/Mouse)+SYN-115 (100 mg/kg), Day 6",14.57 and 13.12 and 15.68 and 14.4 and 13.2 and 16.38 and 20.58
same,Raw Tumor Measurements,"[2]; 2A3 (200 μg/Mouse)+SYN-115 (100 mg/kg), Day 8",16.74 and 31.39 and 22.4 and 24.2 and 18.24 and 25.8 and 16.2
same,Raw Tumor Measurements,"[2]; 2A3 (200 μg/Mouse)+SYN-115 (100 mg/kg), Day 22",141 and 138.6
same,Raw Tumor Measurements,"[2]; 2A3 (200 μg/Mouse)+SYN-115 (100 mg/kg), Day 34",0
same,Raw Tumor Measurements,"[2]; 2A3 (200 μg/Mouse)+SYN-115 (100 mg/kg), Day 39",0
same,Raw Tumor Measurements,"[2]; 2A3 (200 μg/Mouse)+SYN-115 (100 mg/kg), Day 41",0
same,Raw Tumor Measurements,"[2]; Anti-PD-1 (200 ug)+SYN-115 (30 mg/kg), Day 0",11.2 and 7.28 and 14.5 and 13.23
same,Raw Tumor Measurements,"[2]; Anti-PD-1 (200 ug)+SYN-115 (100 mg/kg), Day 0",8.68 and 10.56 and 9.92 and 14.82 and 17.2 and 12.8
same,Raw Tumor Measurements,"[2]; Anti-PD-1 (200 ug)+SYN-115 (100 mg/kg), Day 43",153
same,"Tumor area, individual mice","[3]; SYN-115 30 mg/kg, Day 11, 30 mg/kg",68.53 (2×) and 49 and 54.72 and 73.95 and 50.37
same,"Tumor area, individual mice","[3]; SYN-115 30 mg/kg, Day 14, 30 mg/kg",110.11 (2×) and 63.64 and 87.36 and 99.75 and 44.84
same,"Tumor area, individual mice","[3]; SYN-115 30 mg/kg, Day 16, 30 mg/kg",140.8 (2×) and 95.68 and 114.13 and 132.5 and 77.08
same,"Tumor area, individual mice","[3]; SYN-115 50 mg/kg, Day 0, 50 mg/kg",5.2 and 6.09 and 6.6 and 8.68 and 13.53
same,"Tumor area, individual mice","[3]; SYN-115 50 mg/kg, Day 2, 50 mg/kg",14.44 and 12.48 and 11.7 and 13.02 and 8.68
same,"Tumor area, individual mice","[3]; SYN-115 50 mg/kg, Day 4, 50 mg/kg",17.2 and 21.84 and 14.4 and 29.4 and 24.01
same,"Tumor area, individual mice","[3]; SYN-115 50 mg/kg, Day 7, 50 mg/kg",30.78 and 39.5 and 19.95 and 60.9 and 38.43
same,"Tumor area, individual mice","[3]; SYN-115 50 mg/kg, Day 9, 50 mg/kg",44.73 and 65.8 and 22.04 and 97.02 and 43.52
same,"Tumor area, individual mice","[3]; SYN-115 50 mg/kg, Day 11, 50 mg/kg",60.06 and 100.1 and 22.2 and 117.66 and 59.94
same,"Tumor area, individual mice","[3]; SYN-115 50 mg/kg, Day 14, 50 mg/kg",94.5 and 145.77 and 28.35 and 201.55 and 85.54
same,"Tumor area, individual mice","[3]; SYN-115 50 mg/kg, Day 16, 50 mg/kg",125.13 and 165.2 and 34.45 and 94.76
same,"Tumor area, individual mice","[3]; SYN-115 50 mg/kg, Day 18, 50 mg/kg",161.66 and 60.06 and 133.2
same,"Tumor area, individual mice","[3]; SYN-115 50 mg/kg, Day 21, 50 mg/kg",68.68 and 186.12
same,"Tumor area, individual mice","[3]; SYN-115 50 mg/kg, Day 25",169.36
same,"Tumor area, individual mice","[3]; SYN-115 100 mg/kg 4 days on, 3 days off: drug holiday, Day 0, 100 mg/kg",3.78 and 7.83 and 5.4 and 7.54 and 7.8 and 16.28
same,"Tumor area, individual mice","[3]; SYN-115 100 mg/kg 4 days on, 3 days off: drug holiday, Day 2, 100 mg/kg",2.88 and 12.3 and 7.56 and 9.92 and 6.67 and 19.11
same,"Tumor area, individual mice","[3]; SYN-115 100 mg/kg 4 days on, 3 days off: drug holiday, Day 4, 100 mg/kg",4.8 and 18.9 and 15.98 and 12.18 and 20.4 and 29.07
same,"Tumor area, individual mice","[3]; SYN-115 100 mg/kg 4 days on, 3 days off: drug holiday, Day 7, 100 mg/kg",16.81 and 24.94 and 35.28 and 34.1 and 34.45 and 42.78
same,"Tumor area, individual mice","[3]; SYN-115 100 mg/kg 4 days on, 3 days off: drug holiday, Day 9, 100 mg/kg",25.85 and 33.63 and 52.92 and 47.12 and 57.27 and 60.68
same,"Tumor area, individual mice","[3]; SYN-115 100 mg/kg 4 days on, 3 days off: drug holiday, Day 11, 100 mg/kg",35.75 and 40.87 and 71.28 and 67.76 and 82.65 and 79.68
same,"Tumor area, individual mice","[3]; SYN-115 100 mg/kg 4 days on, 3 days off: drug holiday, Day 14, 100 mg/kg",69.16 and 55.3 and 121.68 and 105.3 and 100.57 and 114.46
same,"Tumor area, individual mice","[3]; SYN-115 100 mg/kg 4 days on, 3 days off: drug holiday, Day 16, 100 mg/kg",82.56 and 69.7 and 164.7 and 125.24 and 118.8 and 133.28
same,"Tumor area, individual mice","[3]; SYN-115 100 mg/kg 4 days on, 3 days off: drug holiday, Day 18, 100 mg/kg",117.81 and 100.88 and 172.55 and 132.6 and 193.88
same,"Tumor area, individual mice","[3]; SYN-115 100 mg/kg 4 days on, 3 days off: drug holiday, Day 21, 100 mg/kg",200.66 and 110.21 and 176.9
same,"Tumor area, individual mice","[3]; SYN-115 100 mg/kg 4 days on, 3 days off: drug holiday, Day 25",153.67
same,"Tumor area, individual mice","[3]; SYN-115 100 mg/kg, Day 0, 100 mg/kg",5.22 and 5.72 and 6.72 and 7.29 and 8.64 and 13.68
same,"Tumor area, individual mice","[3]; SYN-115 100 mg/kg, Day 2, 100 mg/kg",8.12 and 9.24 and 10.36 and 9.28 and 18.8 and 12.8
same,"Tumor area, individual mice","[3]; SYN-115 100 mg/kg, Day 4, 100 mg/kg",13.12 and 16.5 and 22.96 and 19.2 and 24.48 and 19.6
same,"Tumor area, individual mice","[3]; SYN-115 100 mg/kg, Day 7, 100 mg/kg",21.6 and 46.86 and 27.73 and 29.58 and 48.28 and 43.32
same,"Tumor area, individual mice","[3]; SYN-115 100 mg/kg, Day 9, 100 mg/kg",35.19 and 79.17 and 43.66 and 41.3 and 69.66 and 80.58
same,"Tumor area, individual mice","[3]; SYN-115 100 mg/kg, Day 11, 100 mg/kg",41.25 and 116.55 and 53.12 and 51 and 100 and 109.61
same,"Tumor area, individual mice","[3]; SYN-115 100 mg/kg, Day 14, 100 mg/kg",60.52 and 200.2 and 68.87 and 70.84 and 160.48 and 176.85
same,"Tumor area, individual mice","[3]; SYN-115 100 mg/kg, Day 16, 100 mg/kg",80.36 and 103.53 and 86.52
same,"Tumor area, individual mice","[3]; SYN-115 100 mg/kg, Day 18, 100 mg/kg",106.56 and 118.8 and 106
same,"Tumor area, individual mice","[3]; SYN-115 100 mg/kg, Day 21, 100 mg/kg",158.73 and 166.75 and 125.35
same,"Tumor area, individual mice","[3]; SYN-115 100 mg/kg, Day 25",177.32
